These are yes or no findings as the source states them, for the method shown. For some of these results: In cells and extracts the contact can be indirect. Some binding calls cover weakened binding; strength is not graded here. Sequences can lack the tags named with a protein.
T1: FLAG-hRTP801 (human), Q9NX09
T1 chain: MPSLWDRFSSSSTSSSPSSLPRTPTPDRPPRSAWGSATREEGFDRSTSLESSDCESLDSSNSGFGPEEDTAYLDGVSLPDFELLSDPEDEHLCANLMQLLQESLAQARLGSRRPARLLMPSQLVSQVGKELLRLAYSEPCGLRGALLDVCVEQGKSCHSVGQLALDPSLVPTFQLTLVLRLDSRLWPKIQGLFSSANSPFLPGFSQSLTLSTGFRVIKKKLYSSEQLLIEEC

By UniProt entry, the sequences of proteins in these tests, tags left out. Where a name states a change or a piece, a line headed by the entry shows the natural chain unless it says otherwise.
UniProt P49815: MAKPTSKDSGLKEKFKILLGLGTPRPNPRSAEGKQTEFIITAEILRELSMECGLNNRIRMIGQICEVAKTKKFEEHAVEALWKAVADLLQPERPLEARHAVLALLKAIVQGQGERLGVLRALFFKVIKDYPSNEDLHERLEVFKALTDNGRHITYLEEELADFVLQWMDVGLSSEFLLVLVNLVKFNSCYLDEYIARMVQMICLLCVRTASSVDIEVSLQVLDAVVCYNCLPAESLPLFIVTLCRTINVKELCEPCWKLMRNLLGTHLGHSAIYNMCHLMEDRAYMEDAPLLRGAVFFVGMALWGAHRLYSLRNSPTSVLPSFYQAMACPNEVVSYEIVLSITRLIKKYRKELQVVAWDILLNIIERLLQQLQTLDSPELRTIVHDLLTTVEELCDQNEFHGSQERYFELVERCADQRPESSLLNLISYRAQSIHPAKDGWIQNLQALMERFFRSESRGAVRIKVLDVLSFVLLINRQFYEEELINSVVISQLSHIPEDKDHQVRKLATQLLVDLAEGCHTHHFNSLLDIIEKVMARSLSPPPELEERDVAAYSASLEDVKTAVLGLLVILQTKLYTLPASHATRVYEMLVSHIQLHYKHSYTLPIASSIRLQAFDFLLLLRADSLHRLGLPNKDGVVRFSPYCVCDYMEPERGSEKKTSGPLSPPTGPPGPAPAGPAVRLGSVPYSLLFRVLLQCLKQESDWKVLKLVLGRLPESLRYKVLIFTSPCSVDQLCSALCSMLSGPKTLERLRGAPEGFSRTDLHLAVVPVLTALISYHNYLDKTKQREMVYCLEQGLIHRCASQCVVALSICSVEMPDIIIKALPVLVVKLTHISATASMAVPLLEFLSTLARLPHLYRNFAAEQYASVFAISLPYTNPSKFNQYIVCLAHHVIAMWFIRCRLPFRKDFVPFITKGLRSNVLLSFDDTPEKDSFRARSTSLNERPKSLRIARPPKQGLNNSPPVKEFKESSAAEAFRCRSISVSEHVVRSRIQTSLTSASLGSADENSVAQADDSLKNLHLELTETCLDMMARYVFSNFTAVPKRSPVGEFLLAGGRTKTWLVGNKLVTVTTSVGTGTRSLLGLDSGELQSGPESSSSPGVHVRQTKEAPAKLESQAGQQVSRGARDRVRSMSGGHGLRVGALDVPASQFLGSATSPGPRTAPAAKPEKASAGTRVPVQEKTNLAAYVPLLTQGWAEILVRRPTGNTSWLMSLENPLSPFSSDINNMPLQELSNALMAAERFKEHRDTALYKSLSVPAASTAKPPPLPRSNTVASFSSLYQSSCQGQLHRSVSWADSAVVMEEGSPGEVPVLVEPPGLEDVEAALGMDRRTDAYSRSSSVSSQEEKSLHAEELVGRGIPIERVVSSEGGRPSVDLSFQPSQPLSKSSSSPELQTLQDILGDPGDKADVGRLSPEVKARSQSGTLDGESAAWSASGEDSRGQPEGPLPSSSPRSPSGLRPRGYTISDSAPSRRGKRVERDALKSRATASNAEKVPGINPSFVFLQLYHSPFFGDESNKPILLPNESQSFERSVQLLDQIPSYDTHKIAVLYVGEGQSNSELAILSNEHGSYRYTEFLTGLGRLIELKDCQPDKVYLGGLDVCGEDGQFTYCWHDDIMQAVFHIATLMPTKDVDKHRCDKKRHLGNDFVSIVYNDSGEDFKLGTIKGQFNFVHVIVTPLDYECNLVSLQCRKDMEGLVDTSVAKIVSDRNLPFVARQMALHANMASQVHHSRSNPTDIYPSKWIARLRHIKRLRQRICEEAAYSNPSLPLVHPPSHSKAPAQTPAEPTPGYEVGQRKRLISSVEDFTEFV


Tests used:
[1] = molecular target: T1, FLAG-hRTP801 (human), Q9NX09; assay: co-IP with anti-FLAG resin (FIG. 21); conditions: remark: other sources report otherwise
[2] = molecular target: T1, FLAG-hRTP801 (human), Q9NX09; assay: HTRF on 293T HEK cytosolic extracts (FIG. 23); conditions: remark: other sources report otherwise
[3] = molecular target: T1, FLAG-hRTP801 (human), Q9NX09; assay: co-IP with M2 anti-FLAG resin from 293T HEK extracts, immunoblot (FIG. 21); conditions: remark: other sources report otherwise
TSC2 [4] = molecular target: T2, TSC2 (human, UniProt P49815 1-1807, limits assumed); assay: in vitro pull-down from extract (FIG. 13)
T2 construct: Untagged TSC2 in 293T cell extracts, endogenous or from a transfected TSC2 cDNA; Some extracts of the pull-downs may hold HA-TSC2; also called tuberin; endogenous TSC2

TSC2 [5] = molecular target: T2, TSC2; assay: in vitro pull-down (summary of Example 4)

Binder | binding [1] | binding [2] | binding [3] | binding (TSC2 [4]) | binding (TSC2 [5])
HA-SV5-full length hRTP801, Q9NX09 1-232 (protein, not shown: small tags and cut ends) MPSLWDRFSSSSTSSSPSSLPRTPTPDRPPRSAWGSATREEGFDRSTSLESSDCESLDSSNSGFGPEEDTAYLDGVSLPDFELLSDPEDEHLCANLMQLLQESLAQARLGSRRPARLLMPSQLVSQVGKELLRLAYSEPCGLRGALLDVCVEQGKSCHSVGQLALDPSLVPTFQLTLVLRLDSRLWPKIQGLFSSANSPFLPGFSQSLTLSTGFRVIKKKLYSSEQLLIEEC | binds | binds | binds |  | 
6× His-hRTP801 (protein, not shown: small tags and cut ends) MPSLWDRFSSSSTSSSPSSLPRTPTPDRPPRSAWGSATREEGFDRSTSLESSDCESLDSSNSGFGPEEDTAYLDGVSLPDFELLSDPEDEHLCANLMQLLQESLAQARLGSRRPARLLMPSQLVSQVGKELLRLAYSEPCGLRGALLDVCVEQGKSCHSVGQLALDPSLVPTFQLTLVLRLDSRLWPKIQGLFSSANSPFLPGFSQSLTLSTGFRVIKKKLYSSEQLLIEEC |  |  |  | binds | binds
6× His-hRTP801 C-fragment (protein, not shown: small tags and cut ends) DEHLCANLMQLLQESLAQARLGSRRPARLLMPSQLVSQVGKELLRLAYSEPCGLRGALLDVCVEQGKSCHSVGQLALDPSLVPTFQLTLVLRLDSRLWPKIQGLFSSANSPFLPGFSQSLTLSTGFRVIKKKLYSSEQLLIEEC |  |  |  | binds | binds
